Test results as given in doi:10.1101/2025.11.28.691250.
Like-named read-outs stand apart in the source and are kept apart here. No constants are given. Whether binding was seen depends on the method and setting. In cells and extracts the contact can be indirect. These calls come from enrichment with a bait or labelling near it, and not all partners need be listed.

Tests used:
[1] = target: T1, X chromosome-associated protein 5 (Xap5) (mouse (endogenous in NIH/3T3)) (UniProt Q9WV03); assay: affinity purification with mass spectrometry
T1 sequence: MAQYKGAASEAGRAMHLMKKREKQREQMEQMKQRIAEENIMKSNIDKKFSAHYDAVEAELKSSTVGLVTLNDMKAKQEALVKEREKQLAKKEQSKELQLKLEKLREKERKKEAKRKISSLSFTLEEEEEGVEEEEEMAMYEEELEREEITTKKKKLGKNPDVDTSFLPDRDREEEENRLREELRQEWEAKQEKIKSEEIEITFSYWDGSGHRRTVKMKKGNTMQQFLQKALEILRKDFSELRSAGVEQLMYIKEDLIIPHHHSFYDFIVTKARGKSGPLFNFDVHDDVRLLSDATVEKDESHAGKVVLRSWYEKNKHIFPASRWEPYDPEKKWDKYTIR

[2] = target: T1, X chromosome-associated protein 5 (Xap5) (mouse (endogenous in NIH/3T3)); assay: affinity purification with mass spectrometry; remark: listed apart in the source

Molecule	binding [1]	binding [2]
H2afx (from UniProt P27661 1-143)	binds	–
Non-POU domain-containing octamer-binding protein (Nono) (protein, UniProt Q99K48 1-473) MQSNKAFNLEKQNHTPRKHHQHHHQQHHQQQQQQQQQQPPPPIPANGQQASSQNEGLTIDLKNFRKPGEKTFTQRSRLFVGNLPPDITEEEMRKLFEKYGKAGEVFIHKDKGFGFIRLETRTLAEIAKVELDNMPLRGKQLRVRFACHSASLTVRNLPQYVSNELLEEAFSVFGQVERAVVIVDDRGRPSGKGIVEFSGKPAARKALDRCSEGSFLLTTFPRPVTVEPMDQLDDEEGLPEKLVIKNQQFHKEREQPPRFAQPGSFEYEYAMRWKALIEMEKQQQDQVDRNIKEAREKLEMEMEAARHEHQVMLMRQDLMRRQEELRRMEELHNQEVQKRKQLELRQEEERRRREEEMRRQQEEMMRRQQEGFKGTFPDAREQEIRMGQMAMGGAMGINNRGAMPPAPVPPGTPAPPGPATMMPDGTLGLTPPTTERFGQAATMEGIGAIGGTPPAFNRPAPGAEFAPNKRRRY	–	binds
Sfpq (protein, UniProt Q8VIJ6 1-699) MSRDRFRSRGGGGGGFHRRGGGGGRGGLHDFRSPPPGMGLNQNRGPMGPGPGGPKPPLPPPPPHQQQQQPPPQQPPPQQPPPHQQPPPHQPPHQQPPPPPQESKPVVPQGPGSAPGVSSAPPPAVSAPPANPPTTGAPPGPGPTPTPPPAVPSTAPGPPPPSTPSSGVSTTPPQTGGPPPPPAGGAGPGPKPGPGPGGPKGGKMPGGPKPGGGPGMGAPGGHPKPPHRGGGEPRGGRQHHAPYHQQHHQGPPPGGPGPRTEEKISDSEGFKANLSLLRRPGEKTYTQRCRLFVGNLPADITEDEFKRLFAKYGEPGEVFINKGKGFGFIKLESRALAEIAKAELDDTPMRGRQLRVRFATHAAALSVRNLSPYVSNELLEEAFSQFGPIERAVVIVDDRGRSTGKGIVEFASKPAARKAFERCSEGVFLLTTTPRPVIVEPLEQLDDEDGLPEKLAQKNPMYQKERETPPRFAQHGTFEYEYSQRWKSLDEMEKQQREQVEKNMKDAKDKLESEMEDAYHEHQANLLRQDLMRRQEELRRMEELHSQEMQKRKEMQLRQEEERRRREEEMMIRQREMEEQMRRQREESYSRMGYMDPRERDMRMGGGGTMNMGDPYGSGGQKFPPLGGGGGIGYEANPGVPPATMSGSMMGSDMRTERFGQGGAGPVGGQGPRGMGPGTPAGYGRGREEYEGPNKKPRF	–	binds
